Source: article doi:10.1101/2021.12.21.473710
These are yes or no findings as the source states them, for the method shown. Binding seen in cells or lysates may run through a third protein. Some binding calls cover weakened binding; strength is not graded here.

By UniProt entry, the sequences of proteins in these tests, tags left out.
UniProt Q8S307: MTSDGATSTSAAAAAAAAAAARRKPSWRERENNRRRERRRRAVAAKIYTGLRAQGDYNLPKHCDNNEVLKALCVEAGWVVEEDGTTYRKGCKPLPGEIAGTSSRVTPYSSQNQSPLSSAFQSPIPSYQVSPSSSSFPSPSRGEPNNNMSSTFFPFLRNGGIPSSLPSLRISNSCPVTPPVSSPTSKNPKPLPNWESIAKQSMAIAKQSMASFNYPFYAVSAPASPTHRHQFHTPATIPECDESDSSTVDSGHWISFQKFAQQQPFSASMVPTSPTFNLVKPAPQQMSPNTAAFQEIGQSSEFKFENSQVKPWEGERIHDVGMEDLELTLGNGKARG
UniProt Q9LN63: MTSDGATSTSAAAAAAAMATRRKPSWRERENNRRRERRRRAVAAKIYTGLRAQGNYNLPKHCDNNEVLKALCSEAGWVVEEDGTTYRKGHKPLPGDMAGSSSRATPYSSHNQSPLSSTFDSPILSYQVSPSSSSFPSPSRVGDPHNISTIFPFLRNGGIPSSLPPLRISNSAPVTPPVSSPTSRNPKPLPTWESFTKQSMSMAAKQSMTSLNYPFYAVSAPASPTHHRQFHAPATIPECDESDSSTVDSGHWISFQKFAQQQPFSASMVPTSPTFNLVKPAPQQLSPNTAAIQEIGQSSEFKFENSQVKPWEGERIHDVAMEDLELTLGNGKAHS
UniProt Q9C518: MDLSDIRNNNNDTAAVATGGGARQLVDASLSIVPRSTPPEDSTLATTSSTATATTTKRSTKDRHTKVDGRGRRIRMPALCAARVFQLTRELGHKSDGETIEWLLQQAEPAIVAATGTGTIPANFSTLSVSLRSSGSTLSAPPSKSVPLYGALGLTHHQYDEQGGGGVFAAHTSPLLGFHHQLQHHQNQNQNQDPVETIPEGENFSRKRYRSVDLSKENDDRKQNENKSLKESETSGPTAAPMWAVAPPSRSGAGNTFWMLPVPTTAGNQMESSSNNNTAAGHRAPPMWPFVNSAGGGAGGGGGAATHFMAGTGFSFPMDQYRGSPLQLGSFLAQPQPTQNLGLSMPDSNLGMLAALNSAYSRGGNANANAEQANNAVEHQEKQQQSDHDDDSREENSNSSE

What was measured:
[1] = molecular target: GST-BZR1 (Arabidopsis thaliana) (UniProt Q8S307); experiment: pull-down
[2] = molecular target: GST-BZR2 (Arabidopsis thaliana) (UniProt Q9LN63); experiment: pull-down
[3] = molecular target: BZR1-nLUC (Arabidopsis thaliana) (UniProt Q8S307); experiment: split reporter
[4] = molecular target: BZR2-nLUC (Arabidopsis thaliana) (UniProt Q9LN63); experiment: split reporter

With HIS-T7-TCP8 (from UniProt Q9C518 1-401) the binding [1] was “binds” and the binding [2] was “binds”.

For TCP8-cLUC (from UniProt Q9C518 1-401), the binding [3] was “binds” and the binding [4] was “binds”.
